Assay results: article PMC3956929
No constants are given. Whether binding was seen depends on the method and setting. Binding calls can cover weak binding; strength is not graded here. Tags and fused reporters may be left off the sequences shown. For part of these data: Binding seen in cells or lysates may run through a third protein.

Legend:
[1] = target: T1, Bombyx mori Ago3 fused to the split Venus fragment of pnVW (pNV-Ago3) (Bombyx mori) (UniProt A9ZSZ2); assay: split reporter; BiFC in BmN4 cells; 100 ng of each expression plasmid (fusions in pnVW or pcCW) co-transfected; Venus fluorescence by microscopy
T1 sequence: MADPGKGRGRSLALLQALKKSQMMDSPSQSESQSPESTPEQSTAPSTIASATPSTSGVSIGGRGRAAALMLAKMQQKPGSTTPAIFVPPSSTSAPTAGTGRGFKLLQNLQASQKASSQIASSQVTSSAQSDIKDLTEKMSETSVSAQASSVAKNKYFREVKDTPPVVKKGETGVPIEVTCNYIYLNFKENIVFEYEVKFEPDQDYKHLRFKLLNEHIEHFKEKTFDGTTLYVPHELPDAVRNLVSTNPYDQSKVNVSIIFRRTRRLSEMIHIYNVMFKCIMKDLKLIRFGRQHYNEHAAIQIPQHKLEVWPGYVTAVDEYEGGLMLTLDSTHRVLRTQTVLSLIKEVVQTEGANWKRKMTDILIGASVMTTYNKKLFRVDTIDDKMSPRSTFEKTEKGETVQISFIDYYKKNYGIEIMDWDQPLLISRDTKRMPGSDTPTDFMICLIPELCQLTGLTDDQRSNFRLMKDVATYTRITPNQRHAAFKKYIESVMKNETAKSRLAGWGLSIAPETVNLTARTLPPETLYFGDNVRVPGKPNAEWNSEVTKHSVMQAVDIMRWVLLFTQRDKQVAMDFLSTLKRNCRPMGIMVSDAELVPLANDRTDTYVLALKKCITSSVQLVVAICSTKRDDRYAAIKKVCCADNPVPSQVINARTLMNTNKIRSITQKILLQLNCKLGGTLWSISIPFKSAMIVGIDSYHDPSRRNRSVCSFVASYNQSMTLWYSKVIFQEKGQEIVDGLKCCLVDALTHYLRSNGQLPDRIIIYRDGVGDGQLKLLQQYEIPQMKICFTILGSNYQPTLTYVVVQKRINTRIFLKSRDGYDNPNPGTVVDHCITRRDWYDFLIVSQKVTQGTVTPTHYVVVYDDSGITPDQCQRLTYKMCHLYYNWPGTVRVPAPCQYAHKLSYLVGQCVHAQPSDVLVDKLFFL

[2] = target: T2, Bombyx mori Siwi fused to the split Venus fragment of pnVW (pNV-Siwi) (Bombyx mori) (UniProt A8D8P8); assay: as above
T2 sequence: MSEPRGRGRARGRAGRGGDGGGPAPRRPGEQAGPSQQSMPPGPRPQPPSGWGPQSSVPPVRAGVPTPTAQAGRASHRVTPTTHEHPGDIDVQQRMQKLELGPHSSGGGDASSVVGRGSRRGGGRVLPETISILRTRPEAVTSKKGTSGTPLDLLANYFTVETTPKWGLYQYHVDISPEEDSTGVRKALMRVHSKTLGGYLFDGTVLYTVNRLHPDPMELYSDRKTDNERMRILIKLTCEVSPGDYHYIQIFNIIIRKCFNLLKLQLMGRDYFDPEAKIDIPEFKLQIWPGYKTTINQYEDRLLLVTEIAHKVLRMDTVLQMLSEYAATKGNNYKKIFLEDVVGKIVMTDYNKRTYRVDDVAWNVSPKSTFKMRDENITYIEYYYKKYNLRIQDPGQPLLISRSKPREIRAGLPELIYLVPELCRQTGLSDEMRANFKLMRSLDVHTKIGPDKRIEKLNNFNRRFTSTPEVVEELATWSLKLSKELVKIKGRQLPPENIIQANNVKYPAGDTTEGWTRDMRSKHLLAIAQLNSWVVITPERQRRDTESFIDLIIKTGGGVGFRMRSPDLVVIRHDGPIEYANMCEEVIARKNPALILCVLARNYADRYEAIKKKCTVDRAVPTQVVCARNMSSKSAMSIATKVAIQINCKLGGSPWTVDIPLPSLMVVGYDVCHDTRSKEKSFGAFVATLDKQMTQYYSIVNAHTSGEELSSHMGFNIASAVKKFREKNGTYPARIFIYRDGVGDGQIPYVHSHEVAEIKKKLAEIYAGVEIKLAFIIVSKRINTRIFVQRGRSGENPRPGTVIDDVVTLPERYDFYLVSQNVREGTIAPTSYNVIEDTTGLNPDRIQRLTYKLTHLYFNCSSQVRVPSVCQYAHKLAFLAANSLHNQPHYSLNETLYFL

[3] = target: T3, TetR-fused Bombyx mori Ago3 (Bombyx mori) (UniProt A9ZSZ2); assay: two-hybrid; TetR-based insect two-hybrid in BmN4 cells: TetR bait (no typical NLS), p65 AD prey, 9xtetO-IE2mini(L)-Luc reporter, luciferase at 72 h post-transfection, relative to the pUC18 control prey
T3 sequence: T1 sequence

[4] = target: T4, TetR-fused Bombyx mori Siwi (Bombyx mori) (UniProt A8D8P8); assay: as above
T4 sequence: T2 sequence

[5] = target: T5, GAL4 DNA-binding domain-fused N-terminal domain of Bombyx mori Ago3 (Ago3NT) (Bombyx mori) (UniProt A9ZSZ2); assay: two-hybrid; insect two-hybrid (I2H) in BmN4 cells: GAL4 DBD bait, p65 AD prey, 4xUAS-TATA-Luc reporter, luciferase at 72 h post-transfection, relative to the pUC18 control prey; also in BmN4-SID1 cells 72 h after dsRNA against HP1a, HP1b, Ago3, Siwi, putative piRNA-related genes or GFP (control)
T5 sequence: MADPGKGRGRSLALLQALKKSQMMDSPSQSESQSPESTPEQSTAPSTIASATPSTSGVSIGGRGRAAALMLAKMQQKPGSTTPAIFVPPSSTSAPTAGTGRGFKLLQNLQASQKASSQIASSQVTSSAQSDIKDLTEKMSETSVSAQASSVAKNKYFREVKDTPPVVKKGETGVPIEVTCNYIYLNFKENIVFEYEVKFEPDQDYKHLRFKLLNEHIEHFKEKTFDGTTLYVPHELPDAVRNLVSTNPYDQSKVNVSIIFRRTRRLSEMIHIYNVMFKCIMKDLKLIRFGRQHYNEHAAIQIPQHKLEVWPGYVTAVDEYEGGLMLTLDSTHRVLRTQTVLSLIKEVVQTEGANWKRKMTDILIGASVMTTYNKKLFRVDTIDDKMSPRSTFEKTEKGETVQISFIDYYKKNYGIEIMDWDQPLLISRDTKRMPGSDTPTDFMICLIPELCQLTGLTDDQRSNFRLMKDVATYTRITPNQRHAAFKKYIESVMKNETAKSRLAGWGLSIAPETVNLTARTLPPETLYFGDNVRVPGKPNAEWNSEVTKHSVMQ

[6] = target: T6, GAL4 DNA-binding domain-fused N-terminal domain of Bombyx mori Siwi (SiwiNT) (Bombyx mori) (UniProt A8D8P8); assay: as above
T6 sequence: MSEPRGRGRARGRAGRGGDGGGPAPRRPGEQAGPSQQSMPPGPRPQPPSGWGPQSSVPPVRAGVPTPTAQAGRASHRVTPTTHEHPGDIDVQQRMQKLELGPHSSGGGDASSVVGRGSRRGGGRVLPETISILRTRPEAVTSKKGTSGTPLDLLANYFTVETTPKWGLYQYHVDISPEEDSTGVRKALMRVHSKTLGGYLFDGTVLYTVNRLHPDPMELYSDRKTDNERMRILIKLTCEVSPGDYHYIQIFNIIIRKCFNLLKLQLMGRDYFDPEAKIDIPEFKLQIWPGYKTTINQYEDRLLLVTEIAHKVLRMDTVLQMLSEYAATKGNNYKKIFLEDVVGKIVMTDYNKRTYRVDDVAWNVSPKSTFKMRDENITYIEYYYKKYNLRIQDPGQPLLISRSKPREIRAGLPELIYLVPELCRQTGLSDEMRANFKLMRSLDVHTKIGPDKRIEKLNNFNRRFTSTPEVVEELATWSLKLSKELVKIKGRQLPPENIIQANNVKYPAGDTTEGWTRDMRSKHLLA

Substance	binding [1]	binding [2]	binding [3]	binding [4]	binding [5]	binding [6]
Bombyx mori HP1a fused to the split Cerulean fragment of pcCW (pCC-HP1a)	binds weakly	binds weakly	–	–	–	–
p65 activation domain-fused Bombyx mori HP1a (pAD-HP1a)	–	–	binds weakly	binds weakly	binds	binds
